Data reported in the supplement of paper PMC12067093, “Discovery and optimisation of a covalent ligand for TRIM25 and its application to targeted protein ubiquitination” (Chemical Science, 2025).
Some of the results follow.

The chains behind the UniProt entries cited, without tags or fusion partners. Where a name states a change or a piece, a line headed by the entry shows the natural chain unless it says otherwise.
UniProt Q53H96: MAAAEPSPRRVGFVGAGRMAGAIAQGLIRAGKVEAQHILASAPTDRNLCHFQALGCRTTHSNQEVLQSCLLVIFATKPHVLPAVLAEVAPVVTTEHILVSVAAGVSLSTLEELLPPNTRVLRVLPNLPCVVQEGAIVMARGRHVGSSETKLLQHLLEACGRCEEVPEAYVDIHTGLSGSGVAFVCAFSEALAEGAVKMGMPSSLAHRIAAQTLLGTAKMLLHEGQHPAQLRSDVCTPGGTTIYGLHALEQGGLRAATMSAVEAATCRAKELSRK
UniProt Q15276: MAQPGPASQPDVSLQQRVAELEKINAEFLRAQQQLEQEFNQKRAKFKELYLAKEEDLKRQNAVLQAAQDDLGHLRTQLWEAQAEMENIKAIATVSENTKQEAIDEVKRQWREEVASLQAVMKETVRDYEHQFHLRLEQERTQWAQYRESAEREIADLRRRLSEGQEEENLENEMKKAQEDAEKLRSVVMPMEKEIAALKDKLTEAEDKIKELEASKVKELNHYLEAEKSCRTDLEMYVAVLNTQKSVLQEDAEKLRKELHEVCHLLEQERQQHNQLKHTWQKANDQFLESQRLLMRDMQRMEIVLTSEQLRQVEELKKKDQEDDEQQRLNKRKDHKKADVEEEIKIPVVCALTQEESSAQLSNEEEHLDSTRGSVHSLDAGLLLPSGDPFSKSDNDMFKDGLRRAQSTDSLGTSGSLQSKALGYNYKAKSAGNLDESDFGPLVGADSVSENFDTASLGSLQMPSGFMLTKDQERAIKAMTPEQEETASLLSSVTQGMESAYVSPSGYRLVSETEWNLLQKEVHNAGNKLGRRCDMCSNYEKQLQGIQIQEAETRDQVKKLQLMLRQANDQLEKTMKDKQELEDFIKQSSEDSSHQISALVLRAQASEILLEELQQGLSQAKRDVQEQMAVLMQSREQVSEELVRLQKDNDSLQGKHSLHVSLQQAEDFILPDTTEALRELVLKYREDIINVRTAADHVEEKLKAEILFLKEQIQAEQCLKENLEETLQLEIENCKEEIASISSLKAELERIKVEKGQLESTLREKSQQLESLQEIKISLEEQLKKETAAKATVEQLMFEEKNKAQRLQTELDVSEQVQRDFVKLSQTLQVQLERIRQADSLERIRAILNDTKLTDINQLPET
UniProt Q2KHR3: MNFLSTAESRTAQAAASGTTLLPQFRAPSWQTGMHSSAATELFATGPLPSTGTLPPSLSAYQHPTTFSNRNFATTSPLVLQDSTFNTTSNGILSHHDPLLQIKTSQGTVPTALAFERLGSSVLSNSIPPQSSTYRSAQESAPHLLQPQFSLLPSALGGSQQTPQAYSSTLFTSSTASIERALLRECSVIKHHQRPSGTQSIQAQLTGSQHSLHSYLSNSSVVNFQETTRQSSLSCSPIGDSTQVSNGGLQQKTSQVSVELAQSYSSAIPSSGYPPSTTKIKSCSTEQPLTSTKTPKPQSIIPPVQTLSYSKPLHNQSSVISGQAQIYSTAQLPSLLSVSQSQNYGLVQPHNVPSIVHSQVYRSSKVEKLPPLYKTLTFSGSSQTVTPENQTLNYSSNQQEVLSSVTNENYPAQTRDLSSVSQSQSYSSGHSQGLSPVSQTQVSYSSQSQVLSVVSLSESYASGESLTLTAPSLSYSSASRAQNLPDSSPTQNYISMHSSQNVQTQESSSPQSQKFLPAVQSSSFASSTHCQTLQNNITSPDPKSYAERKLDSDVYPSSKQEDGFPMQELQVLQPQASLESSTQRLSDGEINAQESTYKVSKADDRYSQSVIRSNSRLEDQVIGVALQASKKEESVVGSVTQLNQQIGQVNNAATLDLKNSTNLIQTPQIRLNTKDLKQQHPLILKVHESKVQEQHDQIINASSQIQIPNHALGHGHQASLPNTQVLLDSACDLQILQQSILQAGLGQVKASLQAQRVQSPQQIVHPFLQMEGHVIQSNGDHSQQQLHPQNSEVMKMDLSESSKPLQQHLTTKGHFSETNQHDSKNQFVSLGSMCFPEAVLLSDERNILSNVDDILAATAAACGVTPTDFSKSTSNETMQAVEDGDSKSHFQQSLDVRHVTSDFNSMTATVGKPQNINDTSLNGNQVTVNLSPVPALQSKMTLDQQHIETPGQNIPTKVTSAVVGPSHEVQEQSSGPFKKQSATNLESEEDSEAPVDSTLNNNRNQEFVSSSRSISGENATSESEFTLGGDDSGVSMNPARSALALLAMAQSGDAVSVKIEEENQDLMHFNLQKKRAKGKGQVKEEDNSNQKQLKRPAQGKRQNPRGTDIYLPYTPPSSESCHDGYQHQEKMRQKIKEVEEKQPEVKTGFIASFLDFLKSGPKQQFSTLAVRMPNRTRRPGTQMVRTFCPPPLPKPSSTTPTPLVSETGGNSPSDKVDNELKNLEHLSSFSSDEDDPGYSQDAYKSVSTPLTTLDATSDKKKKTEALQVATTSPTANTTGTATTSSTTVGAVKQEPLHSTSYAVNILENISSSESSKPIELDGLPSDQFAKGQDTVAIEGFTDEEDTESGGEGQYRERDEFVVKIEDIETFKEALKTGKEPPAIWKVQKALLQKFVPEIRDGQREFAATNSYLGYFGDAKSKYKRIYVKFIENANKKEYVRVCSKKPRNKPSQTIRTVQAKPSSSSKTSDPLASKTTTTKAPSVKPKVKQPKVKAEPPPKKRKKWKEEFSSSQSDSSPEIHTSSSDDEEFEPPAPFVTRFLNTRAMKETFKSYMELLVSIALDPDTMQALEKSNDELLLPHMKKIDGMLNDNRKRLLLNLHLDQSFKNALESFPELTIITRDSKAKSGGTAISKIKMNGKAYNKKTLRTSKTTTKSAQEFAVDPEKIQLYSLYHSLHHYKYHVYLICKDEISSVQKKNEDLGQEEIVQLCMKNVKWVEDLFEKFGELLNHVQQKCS
UniProt Q9H0K6: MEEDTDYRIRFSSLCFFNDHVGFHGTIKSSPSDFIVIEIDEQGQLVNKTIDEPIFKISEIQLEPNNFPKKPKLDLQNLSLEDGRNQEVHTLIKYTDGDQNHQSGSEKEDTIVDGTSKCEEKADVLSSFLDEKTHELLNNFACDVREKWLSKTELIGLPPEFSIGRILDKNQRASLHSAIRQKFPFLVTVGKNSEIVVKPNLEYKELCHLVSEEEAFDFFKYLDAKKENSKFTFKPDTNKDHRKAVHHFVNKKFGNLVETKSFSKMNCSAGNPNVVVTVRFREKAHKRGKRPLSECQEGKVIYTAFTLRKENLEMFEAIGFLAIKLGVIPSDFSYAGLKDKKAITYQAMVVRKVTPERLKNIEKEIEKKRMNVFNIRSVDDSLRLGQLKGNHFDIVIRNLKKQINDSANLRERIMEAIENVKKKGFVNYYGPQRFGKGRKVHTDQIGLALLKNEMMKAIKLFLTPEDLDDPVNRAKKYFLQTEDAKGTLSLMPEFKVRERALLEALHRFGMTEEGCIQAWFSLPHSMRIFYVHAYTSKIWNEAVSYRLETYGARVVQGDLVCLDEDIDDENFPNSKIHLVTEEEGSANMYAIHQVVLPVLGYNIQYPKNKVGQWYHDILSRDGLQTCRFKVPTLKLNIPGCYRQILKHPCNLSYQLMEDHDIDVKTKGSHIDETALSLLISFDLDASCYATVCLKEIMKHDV
UniProt P54727: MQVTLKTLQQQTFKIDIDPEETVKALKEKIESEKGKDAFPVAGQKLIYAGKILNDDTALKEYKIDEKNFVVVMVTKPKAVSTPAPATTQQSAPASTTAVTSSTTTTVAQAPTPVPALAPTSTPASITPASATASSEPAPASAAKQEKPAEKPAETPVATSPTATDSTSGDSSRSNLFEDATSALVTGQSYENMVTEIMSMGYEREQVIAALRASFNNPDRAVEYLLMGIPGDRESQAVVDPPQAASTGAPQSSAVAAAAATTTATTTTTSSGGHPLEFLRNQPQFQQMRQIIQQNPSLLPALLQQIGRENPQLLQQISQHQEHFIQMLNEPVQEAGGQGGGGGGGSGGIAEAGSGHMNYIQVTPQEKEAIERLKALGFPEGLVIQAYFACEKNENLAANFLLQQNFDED
UniProt O60216: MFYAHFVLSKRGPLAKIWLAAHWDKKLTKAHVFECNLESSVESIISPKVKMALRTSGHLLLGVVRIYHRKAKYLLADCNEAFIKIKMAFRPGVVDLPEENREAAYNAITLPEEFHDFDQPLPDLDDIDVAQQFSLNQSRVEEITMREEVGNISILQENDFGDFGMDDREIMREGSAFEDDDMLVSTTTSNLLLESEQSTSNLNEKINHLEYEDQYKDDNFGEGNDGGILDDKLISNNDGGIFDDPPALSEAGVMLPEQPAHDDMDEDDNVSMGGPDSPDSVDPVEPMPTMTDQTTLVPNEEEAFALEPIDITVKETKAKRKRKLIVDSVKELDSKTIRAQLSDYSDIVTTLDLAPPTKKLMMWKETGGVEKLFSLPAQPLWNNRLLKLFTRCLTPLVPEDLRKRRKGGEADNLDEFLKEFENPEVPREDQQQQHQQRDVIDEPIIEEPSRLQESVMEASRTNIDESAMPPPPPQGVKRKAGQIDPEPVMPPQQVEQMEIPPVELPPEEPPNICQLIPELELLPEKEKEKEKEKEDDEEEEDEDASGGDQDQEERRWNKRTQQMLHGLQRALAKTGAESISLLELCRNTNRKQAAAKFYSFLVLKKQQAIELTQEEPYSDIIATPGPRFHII
UniProt Q15286: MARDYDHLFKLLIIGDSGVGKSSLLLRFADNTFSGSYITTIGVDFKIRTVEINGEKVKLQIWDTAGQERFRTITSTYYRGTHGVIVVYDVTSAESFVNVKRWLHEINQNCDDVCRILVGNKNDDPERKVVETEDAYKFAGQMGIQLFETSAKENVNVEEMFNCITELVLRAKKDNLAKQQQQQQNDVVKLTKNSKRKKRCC

Compound: CC1Cc2ccccc2N1C(=O)C1CCCN(C1)C(=O)CCl (mixture of isomers) [TRIM25 ligand 11 (diastereomer mixture)]
Test: probe-labelled cysteine peptide fold change vs DMSO (competition) (log2 fold change); higher = less target engagement (more negative = stronger competition)
Conditions: THP-1, incubation time: 4 h
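Note: competitive chemoproteomic profiling in live THP-1 cells with an iodoacetamide desthiobiotin (IA-DTB) probe, comparing probe-labelled peptide intensities in compound-treated cells against DMSO-treated controls.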

Row | Target | probe-labelled cysteine peptide fold change (10 µM) | probe-labelled cysteine peptide fold change (50 µM)
1 | PYCR3_Q53H96_49_NLCHFQALGCR (UniProt Q53H96) | -0.0532 | -0.0742
2 | RABEP1_Q15276_350_IPVVCALTQEESSAQLSNEEEHLDSTR (UniProt Q15276) | -0.0072 | -0.0899
3 | QSER1_Q2KHR3_1188_TFCPPPLPK (UniProt Q2KHR3) | 0.0851 | 0.215
4 | PUS7L_Q9H0K6_561_VVQGDLVCLDEDIDDENFPNSK (UniProt Q9H0K6) | 0.133 | 0.0488
5 | RAD23B_P54727_390_ALGFPEGLVIQAYFACEK (UniProt P54727) | 0.0121 | 0.0586
6 | RAD21_O60216_392_CLTPLVPEDLRK (UniProt O60216) | 0.0356 | 0.0542
7 | RAB35_Q15286_110_WLHEINQNCDDVCR (UniProt Q15286) | -0.00601 | -0.0724
